Assay results: patent publication US20100137309A1, “FUNGICIDES PHENYL-PYRIMIDNYL-AMINO DERIVATIVES” (priority 2007, published 2010)
Some results were stated once for a whole list of compounds, not compound by compound.

Tests used:
Botrytis cinerea = assay: In vivo test on Botrytis cinerea (grey mould); details: 500 ppm; gherkin plants sprayed 24 hours before contamination; grading 5/7 days after contamination
Leptosphaeria nodorum = assay: In vivo test on Leptosphaeria nodorum (wheat glume blotch); details: 500 ppm of active ingredient; young plants sprayed preventively one day before inoculation; evaluated 7-9 days after inoculation; 100% = no disease
Pyrenophora teres [1] = assay: In vivo test on Pyrenophora teres (barley net blotch), DMF/emulsifier preparation (Example J); details: 500 ppm; young barley plants sprayed preventively one day before inoculation; grading 7 to 9 days after contamination
Puccinia recondite = assay: In vivo test on Puccinia recondite (wheat rust), DMF/emulsifier preparation (Example G); details: 500 ppm; young wheat plants sprayed preventively one day before inoculation; grading 7 days after contamination
Alternaria solani = assay: In vivo test on Alternaria solani (tomato leaf spot); details: 500 ppm; young tomato plants sprayed preventively one day before inoculation; grading 7 days after contamination
[2] = system: Mycosphaerella graminicola; assay: In vivo test on Mycosphaerella graminicola (wheat leaf spot); details: 500 ppm; wheat plants (Scipion) sprayed 24 hours before contamination; grading 21 to 28 days after contamination
Pyrenophora teres [3] = assay: In vivo test on Pyrenophora teres (barley net blotch), barley Express variety (Example K); details: 500 ppm; barley plants (Express) sprayed 24 hours before contamination; grading 12 days after contamination
Alternaria brassicae = assay: In vivo test on Alternaria brassicae (leaf spot of cruciferous plant); details: 500 ppm; radish plants (Pernot) sprayed 24 hours before contamination; grading 6 to 7 days after contamination
Puccinia recondita = assay: In vivo test on Puccinia recondita (brown rust), wheat Scipion variety (Example H); details: 500 ppm; wheat plants (Scipion) sprayed 24 hours before contamination; grading 10 days after contamination
Sphaerotheca fuliginea = assay: In vivo test on Sphaerotheca fuliginea (cucurbits powdery mildew), gherkin plants (Example C); details: 500 ppm; gherkin plants (Vert petit de Paris) sprayed 24 hours before contamination; grading 12 days after contamination
Peronospora parasitica = assay: In vivo test on Peronospora parasitica (crucifer downy mildew); details: 500 ppm; cabbage plants (Eminence) sprayed 24 hours before contamination; grading 5 days after contamination vs control plants

O=C(NCCCN1CCCCCC1=O)c1cc(-c2ccnc(Nc3cccc(Cl)c3)n2)ccn1 [Compound A1, 4-{2-[(3-chlorophenyl)amino]pyrimidin-4-yl}-N-[3-(2-oxoazepan-1-yl)propyl]pyridine-2-carboxamide]
good protection (Botrytis cinerea): at least 70% | efficacy (Leptosphaeria nodorum): ≥ 70% | good or total protection (Pyrenophora teres [1]): at least 70% | good or total protection (Puccinia recondite): at least 70% | good or total protection (Alternaria solani): at least 70%

COCCOC(=O)c1cc(-c2ccnc(Nc3cccc(Cl)c3)n2)ccn1 [Compound A3]
good protection (Botrytis cinerea): at least 70% | efficacy (Leptosphaeria nodorum): ≥ 70% | good or total protection (Pyrenophora teres [1]): at least 70% | good or total protection (Puccinia recondite): at least 70%

COc1cccc(Nc2nccc(-c3ccnc(C(=O)NCCCN4CCCCCC4=O)c3)n2)c1 [Compound A4]
good protection (Botrytis cinerea): at least 70% | efficacy (Leptosphaeria nodorum): ≥ 70% | good or total protection (Pyrenophora teres [1]): at least 70%

COCCOC(=O)c1cc(-c2ccnc(Nc3ccc(C(C)=O)cc3)n2)ccn1 [Compound A11]
good or total protection (Alternaria solani): at least 70%

COCCOC(=O)c1cc(-c2ccnc(Nc3cccc(NC(C)=O)c3)n2)ccn1 [Compound A13]
good or total protection (Alternaria solani): at least 70%

COCCOC(=O)c1cc(-c2ccnc(Nc3ccc(S(C)(=O)=O)cc3)n2)ccn1 [Compound A14]
good or total protection (Alternaria solani): at least 70%

COCCOC(=O)c1cc(-c2ccnc(Nc3cccc(OC)c3)n2)ccn1 [Compound A16]
good or total protection (Pyrenophora teres [1]): at least 70%

CCCC(C)NC(=O)c1cc(-c2ccnc(Nc3cccc(Cl)c3)n2)ccn1 (stereo not drawn) [Compound A22]
good or total protection [2]: at least 70%

O=C(NCCCCN1CCCC1=O)c1cc(-c2ccnc(Nc3cccc(Cl)c3)n2)ccn1 [Compound A37]
good or total protection [2]: at least 70%

CCCCCNC(=O)c1cc(-c2ccnc(Nc3cccc(Cl)c3)n2)ccn1 [Compound A43]
good or total protection (Pyrenophora teres [3]): at least 70%

CCN(CC)CC(C)NC(=O)c1cc(-c2ccnc(Nc3cccc(Cl)c3)n2)ccn1 (stereo not drawn) [Compound A52]
good or total protection [2]: at least 70%

O=C(NCCCCO)c1cc(-c2ccnc(Nc3cccc(Cl)c3)n2)ccn1 [Compound A65]
good protection (Alternaria brassicae): at least 70% | good or total protection (Pyrenophora teres [3]): at least 70% | good or total protection (Puccinia recondita): at least 70%

CN(C)C(=O)c1cc(-c2ccnc(Nc3cccc(Cl)c3)n2)ccn1 [Compound A76, 4-{2-[(3-chlorophenyl)amino]pyrimidin-4-yl}-N,N-dimethylpyridine-2-carboxamide]
good or total protection (Sphaerotheca fuliginea): at least 70% | good protection (Botrytis cinerea): at least 70% | good protection (Peronospora parasitica): at least 70% | good or total protection (Pyrenophora teres [3]): at least 70% | good or total protection (Puccinia recondita): at least 70%

CCN(CC)C(=O)c1cc(-c2ccnc(Nc3cccc(Cl)c3)n2)ccn1 [Compound A77, 4-{2-[(3-chlorophenyl)amino]pyrimidin-4-yl}-N,N-diethylpyridine-2-carboxamide]
good protection (Alternaria brassicae): at least 70% | good protection (Botrytis cinerea): at least 70% | good protection (Peronospora parasitica): at least 70% | good or total protection (Pyrenophora teres [3]): at least 70% | good or total protection (Puccinia recondita): at least 70%

CC1C=CC(C)N1C(=O)c1cc(-c2ccnc(Nc3cccc(Cl)c3)n2)ccn1 (stereo not drawn) [Compound A78]
good protection (Alternaria brassicae): at least 70% | good protection (Botrytis cinerea): at least 70% | good or total protection (Pyrenophora teres [3]): at least 70%

O=C(c1cc(-c2ccnc(Nc3cccc(Cl)c3)n2)ccn1)N1CCC1 [Compound A79]
good or total protection (Sphaerotheca fuliginea): at least 70% | good protection (Alternaria brassicae): at least 70% | good protection (Botrytis cinerea): at least 70% | good or total protection (Pyrenophora teres [3]): at least 70% | good or total protection (Puccinia recondita): at least 70%

CC1(C)CCCN(C(=O)c2cc(-c3ccnc(Nc4cccc(Cl)c4)n3)ccn2)C1 [Compound A80]
good protection (Alternaria brassicae): at least 70% | good or total protection [2]: at least 70%

O=C(c1cc(-c2ccnc(Nc3cccc(Cl)c3)n2)ccn1)N1CCSCC1 [Compound A81]
good protection (Alternaria brassicae): at least 70% | good or total protection (Pyrenophora teres [3]): at least 70%

O=C(c1cc(-c2ccnc(Nc3cccc(Cl)c3)n2)ccn1)N1CC=CCC1 [Compound A82]
good protection (Alternaria brassicae): at least 70% | good protection (Botrytis cinerea): at least 70% | good or total protection (Pyrenophora teres [3]): at least 70% | good or total protection (Puccinia recondita): at least 70% | good or total protection [2]: at least 70%

O=C(c1cc(-c2ccnc(Nc3cccc(Cl)c3)n2)ccn1)N1CCC(O)CC1 [Compound A83]
good or total protection (Sphaerotheca fuliginea): at least 70% | good protection (Peronospora parasitica): at least 70% | good or total protection (Pyrenophora teres [3]): at least 70%

CC1CN(C(=O)c2cc(-c3ccnc(Nc4cccc(Cl)c4)n3)ccn2)CC(C)O1 (stereo not drawn) [Compound A84]
good protection (Alternaria brassicae): at least 70% | good or total protection (Pyrenophora teres [3]): at least 70% | good or total protection [2]: at least 70%

CN1CCN(C(=O)c2cc(-c3ccnc(Nc4cccc(Cl)c4)n3)ccn2)CC1 [Compound A85]
good protection (Alternaria brassicae): at least 70%

O=C(c1cc(-c2ccnc(Nc3cccc(Cl)c3)n2)ccn1)N1CCCCC1 [Compound A86]
good protection (Alternaria brassicae): at least 70% | good protection (Botrytis cinerea): at least 70% | good or total protection (Pyrenophora teres [3]): at least 70%

O=C(c1cc(-c2ccnc(Nc3cccc(Cl)c3)n2)ccn1)N1CCCC1 [Compound A87]
good protection (Botrytis cinerea): at least 70% | good or total protection (Pyrenophora teres [3]): at least 70% | good or total protection [2]: at least 70%

O=C(c1cc(-c2ccnc(Nc3cccc(Cl)c3)n2)ccn1)N1CCOCC1 [Compound A88]
good or total protection (Pyrenophora teres [3]): at least 70%

CC1CCCN1C(=O)c1cc(-c2ccnc(Nc3cccc(Cl)c3)n2)ccn1 (stereo not drawn) [Compound A89]
good protection (Alternaria brassicae): at least 70% | good protection (Botrytis cinerea): at least 70% | good or total protection (Pyrenophora teres [3]): at least 70% | good or total protection (Puccinia recondita): at least 70%

CC1CC(C)CN(C(=O)c2cc(-c3ccnc(Nc4cccc(Cl)c4)n3)ccn2)C1 (stereo not drawn) [Compound A90]
good or total protection [2]: at least 70%

CCON=C(CC)c1cc(-c2ccnc(Nc3cccc(Cl)c3)n2)ccn1 [Compound A96]
good or total protection [2]: at least 70%

CC(=NNCC(F)(F)F)c1cc(-c2ccnc(Nc3cccc(Cl)c3)n2)ccn1 [Compound A99]
good or total protection (Pyrenophora teres [3]): at least 70% | good or total protection [2]: at least 70%

CCC(=NNCC(F)(F)F)c1cc(-c2ccnc(Nc3cccc(Cl)c3)n2)ccn1 [Compound A100]
good or total protection (Pyrenophora teres [3]): at least 70%

CCC(=NNC)c1cc(-c2ccnc(Nc3cccc(Cl)c3)n2)ccn1 [Compound A101]
good or total protection (Pyrenophora teres [3]): at least 70%

CCC(=NN)c1cc(-c2ccnc(Nc3cccc(Cl)c3)n2)ccn1 [Compound A104]
good or total protection (Pyrenophora teres [3]): at least 70%

CC(=NNc1ccc(Cl)cc1)c1cc(-c2ccnc(Nc3cccc(Cl)c3)n2)ccn1 [Compound A105]
good or total protection (Pyrenophora teres [3]): at least 70%

CC(=NN)c1cc(-c2ccnc(Nc3cccc(Cl)c3)n2)ccn1 [Compound A106]
good or total protection (Pyrenophora teres [3]): at least 70% | good or total protection [2]: at least 70%

CCC(=NNCCC#N)c1cc(-c2ccnc(Nc3cccc(Cl)c3)n2)ccn1 [Compound A107]
good or total protection (Pyrenophora teres [3]): at least 70%

CC(=NNCCC#N)c1cc(-c2ccnc(Nc3cccc(Cl)c3)n2)ccn1 [Compound A108, 3-{2-[1-(4-{2-[(3-chlorophenyl)amino]pyrimidin-4-yl}pyridin-2-yl)ethylidene]hydrazinyl}propanenitrile]
good or total protection (Pyrenophora teres [3]): at least 70%

CCC(=NNc1ccc(Cl)cc1)c1cc(-c2ccnc(Nc3cccc(Cl)c3)n2)ccn1 [Compound A109]
good or total protection (Pyrenophora teres [3]): at least 70% | good or total protection [2]: at least 70%

CC(=O)c1cc(-c2ccnc(Nc3cccc(Cl)c3)n2)ccn1 [Compound A110, 1-(4-{2-[(3-chlorophenyl)amino]pyrimidin-4-yl}pyridin-2-yl)ethanone]
good or total protection (Pyrenophora teres [3]): at least 70%

CCC(=O)c1cc(-c2ccnc(Nc3cccc(Cl)c3)n2)ccn1 [Compound A111]
good or total protection (Pyrenophora teres [3]): at least 70%
